No constants are given. Whether binding was seen depends on the method and setting. Binding seen in cells or lysates may run through a third protein. A yes stands for co-enrichment or nearness to the bait. Other partners may have been found.
Target: T1, Keratin 80 (human (endogenous in A549)) (UniProt Q6KB66)
T1 sequence: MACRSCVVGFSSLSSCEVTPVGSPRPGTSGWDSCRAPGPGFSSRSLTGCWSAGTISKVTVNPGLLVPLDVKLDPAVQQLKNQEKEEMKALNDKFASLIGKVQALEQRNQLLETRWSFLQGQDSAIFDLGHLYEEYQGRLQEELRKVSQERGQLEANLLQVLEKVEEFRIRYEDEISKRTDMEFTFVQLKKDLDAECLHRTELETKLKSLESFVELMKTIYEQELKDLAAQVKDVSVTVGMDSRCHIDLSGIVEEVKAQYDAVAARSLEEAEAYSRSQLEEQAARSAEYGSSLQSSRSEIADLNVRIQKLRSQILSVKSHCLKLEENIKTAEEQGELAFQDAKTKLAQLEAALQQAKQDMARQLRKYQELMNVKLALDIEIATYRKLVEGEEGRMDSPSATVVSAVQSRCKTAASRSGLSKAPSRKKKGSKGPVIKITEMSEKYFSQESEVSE
Assay: affinity purification with mass spectrometry; IP-MS of KRT80 'in LUAD'; cell line and antibody not stated; 206 interacting proteins listed

binding: binds
Substance: Valosin-containing protein (from UniProt P55072 1-806)
